{
  "source": "PubChem BioAssay AID493014",
  "about": "(National Center for Advancing Translational Sciences (NCATS), 2011)",
  "note": "Out of some 340,000 compounds screened, about 170 (0.05%) were called active. The inconclusive results got no clear call from the source; some entries with a clear call stand among them for comparison. Calls come from the whole dose curve; as a rule, active = well fitted inhibition curve with a large enough effect in the signal ratio, with a control signal flat (not every such curve was filed as active); inconclusive = small, poorly fitted or top-dose-only effect, or effect the other way, or a change in a side signal; inactive = flat fitted curve, though single readings scatter; the % refers to the signal ratio. Potencies beside an inconclusive call are fits to weak or partial responses and may not hold up. Potency is the fitted concentration of half-maximal effect.",
  "data": [
    {"assay": "qHTS Assay to Find Inhibitors of Chronic Active B-Cell Receptor Signaling;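 for activity change, negative = inhibition: plate controls were basal doxycycline-induced cells for no effect and cells given 10 µM MG132 for full effect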", "details": "ABC-DLBCL IkBa-CBG/CBR reporter, luminescence ratio (green luciferase fused to IkBa over red control in TMD8 lymphoma cells), 4 h; activity change, negative = inhibition: at 46.1 µM (top of the series)", "method_in_brief": "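TMD8 human ABC-DLBCL cells with doxycycline-inducible IκBα–green luciferase fusion and unfused red luciferase, in 0.5% FBS medium; compounds up to 46 uM, 4 h at 37C. Green/red luminescence ratio, filter-overlap corrected, fitted to concentration-response curves.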", "values": [
      {"compound": "Cc1nc(-c2ccc3c(c2)OCCCO3)cs1", "activity change, negative = inhibition": "inconclusive: 5.49%"},
      {"compound": "COc1cc(C(N)=O)cc(Br)c1OC", "activity change, negative = inhibition": "inconclusive: -3.92%"},
      {"compound": "O=C(/C=C/c1ccccc1)NC(=S)NNS(=O)(=O)c1ccccc1", "activity change, negative = inhibition": "inconclusive: -1.6%"},
      {"compound": "CCN1CCCC1CNC(=O)c1ccc(Sc2ccccc2Cl)c([N+](=O)[O-])c1", "note": "(stereo not given)", "Potency": "inconclusive: 17.8 µM [falling, partial curve, poor fit]"},
      {"compound": "O=C(O)c1ccc(NC(=S)NC(NC(=O)c2ccco2)C(Cl)(Cl)Cl)cc1", "note": "(stereo not given)", "Potency": "inconclusive: 20.6 µM [falling, single point]"},
      {"compound": "O=C(NC(=O)c1ccc(F)cc1F)Nc1ccc(Cl)cc1", "activity change, negative = inhibition": "inconclusive: -182%"},
      {"compound": "COc1ccc(C2CC2/C(C)=N/OC(=O)C2CC2)cc1", "note": "(stereo not given)", "activity change, negative = inhibition": "inconclusive: 2.94%"},
      {"compound": "Cc1ccc(C(=O)NCC(=O)Nc2ccc3c(c2)CCC3)cc1", "activity change, negative = inhibition": "inconclusive: -0.302%"},
      {"compound": "Cc1ccc(NC(=O)C(=O)NC(C)C2COc3ccccc3O2)cc1", "note": "(stereo not given)", "Potency": "inconclusive: 14.1 µM [falling, partial curve, poor fit]"},
      {"compound": "O=C(Cc1ccccc1[N+](=O)[O-])OCC(=O)N1CCN(c2ccccc2)CC1", "activity change, negative = inhibition": "inactive: 0.436%"},
      {"compound": "CCc1ccc(CN2CCC(n3nccc3NC(=O)c3cccc(F)c3)CC2)cc1", "activity change, negative = inhibition": "inactive: -3.85%"},
      {"compound": "COC(=O)c1sccc1NC(=O)Cc1ccc(OC)cc1", "Potency": "inconclusive: 0.517 µM [falling, full curve]"},
      {"compound": "Cc1ccc(S(=O)(=O)N2CCCCC2)cc1NC(=O)CNc1ccc(C(F)(F)F)cc1", "activity change, negative = inhibition": "inconclusive: 3.09%"},
      {"compound": "COc1cccc(-c2ncc3ccccc3c2COC(=O)c2ccc(Br)cc2)c1", "Potency": "inconclusive: 8.2 µM [falling, partial curve]"},
      {"compound": "COc1ccc2nc(NC(=O)CSc3cn[nH]n3)sc2c1", "Potency": "inconclusive: 31.6 µM [rising, single point]"},
      {"compound": "CN(CCc1nc2ccc(Cl)cc2[nH]1)Cc1nc(CC2CC2)no1", "activity change, negative = inhibition": "inconclusive: 7%"},
      {"compound": "CCc1nnc(N/N=C/c2cccs2)n1N", "activity change, negative = inhibition": "inconclusive: -12.3%"},
      {"compound": "CCOC(=O)c1cc(-c2ccccc2C)n(CC2CC(c3cccc([N+](=O)[O-])c3)=NO2)n1", "note": "(stereo not given)", "Potency": "inconclusive: 23.1 µM [falling, single point]"},
      {"compound": "O=C(CCl)Nc1cc(-c2ccccc2)nn1-c1ccccc1", "Potency": "inconclusive: 6.51 µM [falling, single point]"},
      {"compound": "Cc1ccc(S(=O)(=O)Nc2ccccc2CNc2c(C)n(C)n(-c3ccccc3)c2=O)cc1", "activity change, negative = inhibition": "inconclusive: -1.77%"},
      {"compound": "COc1ccc(C)cc1NC(=O)c1ccc2c(c1)OCO2", "Potency": "inconclusive: 10.3 µM [rising, partial curve, poor fit]"},
      {"compound": "c1ccc(CSCCc2ccncc2)cc1", "activity change, negative = inhibition": "inconclusive: 6.69%"},
      {"compound": "COc1cccc(C2N=C(c3ccccc3C)NO2)c1OC", "note": "(stereo not given)", "activity change, negative = inhibition": "inactive: 0.652%"},
      {"compound": "N#Cc1cc2c(nc1SCc1ccccc1)CCCC2=O", "activity change, negative = inhibition": "inconclusive: 4.01%"},
      {"compound": "CC(=O)OCC(=O)[C@@]1(O)[C@H](C)C[C@H]2[C@@H]3CCC4=CC(=O)C=C[C@]4(C)[C@@]3(F)[C@@H](O)C[C@@]21C", "activity change, negative = inhibition": "inconclusive: -3.36%"},
      {"compound": "COc1cc(C(=O)Nc2ccccc2N2CCN(S(C)(=O)=O)CC2)cc(OC)c1OC", "activity change, negative = inhibition": "inconclusive: 0.729%"},
      {"compound": "COC(=O)c1cccc(Cn2nc(C)c([N+](=O)[O-])c2C)c1", "activity change, negative = inhibition": "inconclusive: 11.9%"},
      {"compound": "C=CCn1c(CNC(=O)c2ccccc2F)nnc1SCC(=O)NC(C)c1ccccc1", "note": "(stereo not given)", "activity change, negative = inhibition": "inactive: -7.51%"},
      {"compound": "CCOC(=O)N1CCN(C(=O)c2ccc3c(c2)N(C)C(=O)/C(=C\\c2ccc(OCC)c(OC)c2)S3)CC1", "Potency": "inconclusive: 31.6 µM [falling, single point]"},
      {"compound": "O=C(/C=C/c1cc([N+](=O)[O-])ccc1OC(F)F)Nc1cccc(OC(F)F)c1", "activity change, negative = inhibition": "inactive: -6.22%"},
      {"compound": "COc1ccc(CCN(C)c2ccc(S(=O)(=O)N3CCCC3)cc2[N+](=O)[O-])cc1OC", "activity change, negative = inhibition": "inactive: -13.5%"},
      {"compound": "O=c1c2ccccc2nc(-c2ccccc2)n1CCCN1CCOCC1", "activity change, negative = inhibition": "inconclusive: 4.16%"},
      {"compound": "NC(=O)c1cc(NC(=O)CCc2nc3ccccc3s2)cc(C(N)=O)c1", "activity change, negative = inhibition": "inconclusive: -14.7%"},
      {"compound": "CCc1ccc2oc(-c3cc(N=Cc4cccc(OC)c4O)ccc3O)nc2c1", "activity change, negative = inhibition": "inactive: -0.252%"},
      {"compound": "CCOC(=O)c1ccc(S(=O)(=O)N2CCN(CC(=O)NC(=O)NC(C)(C)C)CC2)cc1", "activity change, negative = inhibition": "inconclusive: 10.7%"},
      {"compound": "Cc1ccc(CNC(=O)CSCc2ccccc2C)cc1", "activity change, negative = inhibition": "inconclusive: 7.3%"},
      {"compound": "COc1ccc(CNC(=O)COC(=O)CCc2c[nH]c3ccccc23)cc1", "activity change, negative = inhibition": "inactive: -8.29%"},
      {"compound": "Cc1ccc(NC(=O)c2ccc(NCCN)c([N+](=O)[O-])c2)cc1", "Potency": "inconclusive: 8.2 µM [falling, partial curve, poor fit]"},
      {"compound": "CC(C)=CCC/C(C)=C/CNC(=O)C[C@H]1C[C@H](C(=O)N2CCOCC2)[C@@]2(C)c3[nH]c4cc(-c5ccco5)ccc4c3CCN2C1=O", "Potency": "inconclusive: 11.6 µM [falling, partial curve]"},
      {"compound": "Cc1cc(C(=O)Nc2cccc(O)c2)c(C)o1", "Potency": "inconclusive: 23.1 µM [falling, partial curve]"},
      {"compound": "COc1ccc(-n2c(/C=C/c3cccc4ccccc34)nc3ccccc3c2=O)cc1OC", "activity change, negative = inhibition": "inactive: -2.45%"},
      {"compound": "Cc1cc(C)c2c(c1)C1C=CCC1C(c1ccc(S(=O)(=O)N3CCOCC3)cc1)N2", "note": "(stereo not given)", "activity change, negative = inhibition": "inconclusive: -6.26%"},
      {"compound": "CCOC(=O)C1CCN(C(=O)/C=C/c2cc(OC)c(OC)c(OC)c2)CC1", "activity change, negative = inhibition": "inconclusive: -3.88%"},
      {"compound": "Cc1ccsc1C(=O)OCC(=O)Nc1cccc(F)c1", "activity change, negative = inhibition": "inconclusive: -0.657%"},
      {"compound": "COc1ccc(-c2cc(C(=O)N3CCCC3)c3ccccc3n2)cc1", "activity change, negative = inhibition": "inactive: -15%"},
      {"compound": "COc1ccc(N2C(N)=C(C#N)C(c3cccnc3)C3=C2CC(C)(C)CC3=O)cc1", "note": "(stereo not given)", "activity change, negative = inhibition": "inconclusive: 2.77%"},
      {"compound": "COc1ccc(N(C(=O)c2ccco2)C(C(=O)NC2CCCCC2)c2cccs2)cc1OC", "note": "(stereo not given)", "activity change, negative = inhibition": "inactive: 0.167%"},
      {"compound": "Cc1nc2cc(NC(=O)NCCC3=CCCCC3)ccc2o1", "activity change, negative = inhibition": "inconclusive: 18.1%"},
      {"compound": "CCN(CC)c1ccc(NC(=O)C2CC(=O)N(Cc3ccccc3)C2)cc1", "note": "(stereo not given)", "activity change, negative = inhibition": "inactive: -9.48%"},
      {"compound": "COc1ccccc1NC(=O)CSc1nc2n[nH]c(C)c2c(=N)n1-c1ccccc1Cl", "Potency": "inconclusive: 16.4 µM [falling, partial curve]"}
    ]}
  ]
}
